In PubChem BioAssay AID493014 (National Center for Advancing Translational Sciences (NCATS), 2011):
This is one part of the list. The main result of the screen is listed elsewhere. These columns were measured beside it and carry no call. Most of these compounds were active or inconclusive in the main read-out, so they are no random draw. Words in brackets tell the shape of the fitted curve; partial curves, single points and poor fits give uncertain potencies.

Assay: qHTS Assay to Find Inhibitors of Chronic Active B-Cell Receptor Signaling
Details: ABC-DLBCL IkBa-CBG/CBR reporter, luminescence ratio (green luciferase fused to IkBa over red control in TMD8 lymphoma cells), 4 h
How it was run: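 Concentration-response series (up to 46 uM) were applied to TMD8 dual-reporter cells for 4 h at 37C with doxycycline. Green/red ratio, after filter-overlap correction, defined %Activity; red signal alone was normalised to basal cells and zero luminescence.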

[1] = measured here: CBR red luminescence, cell number
[2] = measured here: IkBa-CBG green luminescence

In the case of `CCc1nc(SCc2ccccn2)[nH]c(=O)c1C`, the AC50 [1] is reported as 0.794 µM [falling, full curve, poor fit].

For `O=C(CCC(=O)c1cccs1)c1cccs1`, the AC50 [1] was 16.4 µM [falling, partial curve, poor fit].

For `Cc1ccccc1C(=O)NNC1CC(=O)N(c2ccc3c(c2)OCCO3)C1=O` (stereo not drawn), the AC50 [1] was 18.4 µM [falling, partial curve].

For `COc1ccccc1N(O)C1CC(=O)N(c2ccc(F)cc2)C1=O` (stereo not drawn), the AC50 [1] was 13 µM [falling, partial curve, poor fit].

For `C=CCNc1sc(C(=O)C2CC2)c(N)c1C#N`, the AC50 [1] was 1.84 µM [rising, full curve, poor fit].

In the case of `O=C(Nc1nnc(-c2ccco2)o1)c1cccc(Cl)c1`, the AC50 [1] is reported as 5.62 µM [falling, full curve].

For `O=C(CCC(=O)c1ccc(F)cc1)Nc1cccc(S(=O)(=O)Nc2cccc(Cl)c2)c1`, the AC50 [1] was 23.1 µM [falling, partial curve].

With `CCOc1ccc(N2C(=O)S/C(=C\c3ccc(O)c(OC)c3)C2=O)cc1` the AC50 [1] was 11.2 µM [rising, partial curve, poor fit].

In the case of `Cc1nnc(OCc2nc3ccccc3n2C)c2ccccc12`, the AC50 [1] is reported as 8.2 µM [falling, partial curve].

With `COc1ccc(Nc2ncnc3sc(C)cc23)cc1` the AC50 [1] was 0.891 µM [rising, full curve, poor fit].

In the case of `CCc1ccc(NC(=S)N(CCOC)C2CCN(C(C)=O)CC2)cc1`, the AC50 [1] is reported as 22.4 µM [falling, single point].

With `COc1cccc(CN(C(=O)/C=C/c2ccc(Cl)cc2)C2CCS(=O)(=O)C2)c1` (stereo not drawn) the AC50 [1] was 0.447 µM [rising, full curve, poor fit].

In the case of `COc1ccc2c(-c3ccccc3)cc(=O)[nH]c2c1`, the AC50 [1] is reported as 1.64 µM [rising, partial curve, poor fit].

In the case of `Nc1nc(CSc2ccccc2)nc(N2CCCCC2)n1`, the AC50 [1] is reported as 0.501 µM [rising, full curve, poor fit].

For `O=C(CSc1nnc2ccc(-c3ccncc3)nn12)Nc1ccc(F)cc1`, the AC50 [1] was 14.6 µM [falling, partial curve, poor fit].

With `O=C(C1=C[C@@H](C2CCCCC2)C[C@@H](OCc2ccc(CO)cc2)O1)N1CCN(Cc2ccc3c(c2)OCO3)CC1` the AC50 [1] was 11.2 µM [falling, single point].

In the case of `Cc1ccc(Nc2cc(C(=O)NCCCN3CCOCC3)c3ccccc3n2)c(C)c1`, the AC50 [1] is reported as 6.31 µM [falling, full curve] and the AC50 [2] is reported as 12.6 µM [rising, partial curve, poor fit].

For `O=C(Nc1cccnc1)c1ccc2ccccc2c1O`, the AC50 [1] was 8.91 µM [falling, partial curve].

For `Clc1ccccc1-c1ccc2ncnc(NCc3cccs3)c2c1`, the AC50 [1] was 23.1 µM [falling, single point] and the AC50 [2] was 29.1 µM [rising, partial curve, poor fit].

In the case of `Oc1cccc2ccc(/C=C/c3cccs3)nc12`, the AC50 [1] is reported as 29.1 µM [falling, single point] and the AC50 [2] is reported as 20.6 µM [falling, single point].

For `C=CCNC(=S)NNC(=O)COc1c(Cl)cc(Cl)cc1Cl`, the AC50 [1] was 29.1 µM [falling, single point] and the AC50 [2] was 18.4 µM [falling, single point].

For `O=C(CCCCCN1C(=O)[C@@H]2Cc3ccccc3CN2C1=O)N[C@@H](Cc1ccc(O)cc1)C(=O)O`, the AC50 [1] was 2.24 µM [falling, full curve].

In the case of `COc1ccc(/C(C)=N\Nc2nc(-c3ccccc3)cc(=O)[nH]2)cc1`, the AC50 [1] is reported as 7.31 µM [falling, partial curve].

For `C/C(=N/NC(=O)c1ccccn1)c1ccco1`, the AC50 [1] was 35.5 µM [falling, single point].

For `CC(=O)c1c(C)oc2ccc(N(C(C)=O)S(=O)(=O)c3ccc(Cl)c([N+](=O)[O-])c3)cc12`, the AC50 [1] was 10 µM [falling, partial curve].

With `CCOC(=O)c1cnc2ccccc2c1NCCc1ccc(OC)c(OC)c1` the AC50 [1] was 11.2 µM [falling, partial curve, poor fit].

In the case of `COc1ccc(NS(=O)(=O)c2cccc(C(=O)NNC(=O)CNC(=O)c3cccc(C)c3)c2)cc1`, the AC50 [1] is reported as 25.1 µM [rising, partial curve, poor fit].

For `C[C@H](CO)N1C[C@H](C)[C@@H](CN(C)S(C)(=O)=O)Oc2ccc(NC(=O)C3CCCCC3)cc2C1=O`, the AC50 [1] was 29.1 µM [rising, single point].

In the case of `O=C(CSc1n[nH]c(-c2ccncc2)n1)Nc1ccccc1C(F)(F)F`, the AC50 [1] is reported as 7.94 µM [falling, partial curve, poor fit].

For `O=C(OCCN=C1NS(=O)(=O)c2ccccc21)c1ccncc1`, the AC50 [1] was 0.184 µM [falling, full curve, poor fit].

In the case of `CCOc1ccccc1N(CC(=O)Nc1ccccc1C(=O)NCc1ccco1)S(C)(=O)=O`, the AC50 [1] is reported as 0.103 µM [rising, full curve, poor fit].

For `CCOc1ccc(N=Nc2cc(C(C)C)ccc2O)cc1`, the AC50 [1] was 5.8 µM [rising, partial curve, poor fit].

In the case of `Cc1ccc(S(=O)(=O)Nc2nc3ccccc3nc2NCc2ccco2)cc1C`, the AC50 [1] is reported as 3.16 µM [falling, partial curve, poor fit].

With `O=C1COc2ccc(N3C(=O)C=CC3=O)cc2N1` the AC50 [1] was 35.5 µM [falling, single point] and the AC50 [2] was 12.6 µM [rising, partial curve, poor fit].

With `COCCN(C(=O)c1csnn1)C(C(=O)NC(C)(C)C)c1cccc(OC)c1` (stereo not drawn) the AC50 [1] was 4.11 µM [rising, single point].

With `Cc1onc(-c2ccccc2Cl)c1C(=O)Oc1cccc2cccnc12` the AC50 [2] was 22.4 µM [falling, single point].

In the case of `O=c1[nH]c(-c2ccccn2)nc2ccccc12`, the AC50 [1] is reported as 35.5 µM [rising, single point] and the AC50 [2] is reported as 28.2 µM [falling, single point].

In the case of `CCc1ccc2c(c1)C1(NN=C(c3cccc4ccccc34)S1)C(=O)N2` (stereo not drawn), the AC50 [1] is reported as 5.17 µM [falling, full curve].

In the case of `CC(C)(C#CC(O)(c1ccccc1)c1ccccc1)N1CCCCC1`, the AC50 [1] is reported as 5.62 µM [falling, partial curve, poor fit].

With `O=S(=O)(NCc1cc(-c2ccccc2Cl)no1)c1ccccc1` the AC50 [1] was 0.112 µM [rising, full curve, poor fit].

For `CC(=O)Nc1cccc(NS(=O)(=O)c2cc3c4c(c2)CCN4C(=O)CC3)c1`, the AC50 [1] was 32.6 µM [rising, partial curve, poor fit].

In the case of `CCOC(=O)C(c1ccccc1)N1CCN(c2ccc(OC)cc2)CC1` (stereo not drawn), the AC50 [1] is reported as 3.55 µM [rising, partial curve, poor fit].

In the case of `CC(OC(=O)/C=C/c1ccc2ccccc2n1)C(=O)N(C)c1ccccc1` (stereo not drawn), the AC50 [1] is reported as 3.26 µM [rising, partial curve, poor fit].

In the case of `Cc1ccc(NC2CCCN(C(=O)CCC3=NNC(=O)CC3)C2)cc1C` (stereo not drawn), the AC50 [1] is reported as 1.26 µM [rising, full curve, poor fit].

In the case of `C=CC(C)(C)c1cc2cc3ccoc3cc2oc1=O`, the AC50 [1] is reported as 4.11 µM [rising, full curve, poor fit].

With `O=C(CCc1c[nH]c2ccccc12)OCC(=O)N1CCN(S(=O)(=O)c2ccccc2)CC1` the AC50 [1] was 29.1 µM [rising, single point].

With `O=C(CN1CC(=O)Nc2ccccc21)Nc1ccc(F)c(F)c1` the AC50 [1] was 7.08 µM [falling, partial curve].

With `O=C(O)CCNc1nc(C(F)(F)F)nc2ccccc12` the AC50 [1] was 10 µM [rising, partial curve, poor fit].

For `O=C(O)c1cc(-c2ccc3c(c2)OCO3)nc2ccc(Cl)cc12`, the AC50 [1] was 17.8 µM [falling, partial curve, poor fit].

With `Cc1cccc(OCc2nnc(SCC(=O)N(C(C)C)C(C)C)n2Cc2ccco2)c1C` the AC50 [1] was 15.8 µM [falling, single point].

With `COc1ccc(C2CC(=O)c3cnc(NC(=O)c4cccc(OC)c4)nc3C2)cc1` (stereo not drawn) the AC50 [1] was 0.794 µM [falling, full curve, poor fit].

For `CCN(CC)c1ccc(C(=O)NNC(=O)CCl)cc1`, the AC50 [1] was 0.447 µM [falling, partial curve, poor fit].

In the case of `CCc1cc(C(=O)NNC(=S)Nc2cccc(C)c2)cs1`, the AC50 [1] is reported as 25.9 µM [falling, partial curve, poor fit].

With `Fc1ccc(Cn2cccc2C2=NC(c3ccccc3)CO2)cc1` (stereo not drawn) the AC50 [1] was 3.98 µM [rising, partial curve].

In the case of `COc1ccc(-c2sc3cc4c(cc3c2C#CC2(O)CCCCC2)OCO4)cc1`, the AC50 [1] is reported as 23.1 µM [rising, partial curve].

For `COc1ccc(NC(=O)C2CCCN(S(=O)(=O)c3cccc4cccnc34)C2)cc1OC` (stereo not drawn), the AC50 [1] was 6.51 µM [rising, full curve, poor fit].

For `Cc1ccc(Nc2nc(N)c3ccccc3n2)cc1Cl`, the AC50 [1] was 14.1 µM [falling, single point].

With `CCOc1ccc(C(=O)Nc2cccc(SC)c2)cc1` the AC50 [1] was 0.92 µM [falling, full curve, poor fit].

With `Cc1cc(Cl)c2oc(C(=O)N(C)Cc3ccon3)c(C)c2c1` the AC50 [1] was 7.94 µM [rising, partial curve].

In the case of `Cc1c(/C=N/NC(=O)c2cccnc2)c2ccccc2n1Cc1ccccc1`, the AC50 [1] is reported as 25.1 µM [falling, single point].

For `Cc1cc(C(=O)NN=C2C3CC4CC(C3)CC2C4)c2ccccc2n1`, the AC50 [1] was 31.6 µM [rising, single point] and the AC50 [2] was 22.4 µM [falling, single point].
